Two molecules from paper PMC3037350 can be followed below.

The chains behind the UniProt entries cited, without tags or fusion partners. Residues count along the entry.
UniProt B6KAM0, residues 67-569: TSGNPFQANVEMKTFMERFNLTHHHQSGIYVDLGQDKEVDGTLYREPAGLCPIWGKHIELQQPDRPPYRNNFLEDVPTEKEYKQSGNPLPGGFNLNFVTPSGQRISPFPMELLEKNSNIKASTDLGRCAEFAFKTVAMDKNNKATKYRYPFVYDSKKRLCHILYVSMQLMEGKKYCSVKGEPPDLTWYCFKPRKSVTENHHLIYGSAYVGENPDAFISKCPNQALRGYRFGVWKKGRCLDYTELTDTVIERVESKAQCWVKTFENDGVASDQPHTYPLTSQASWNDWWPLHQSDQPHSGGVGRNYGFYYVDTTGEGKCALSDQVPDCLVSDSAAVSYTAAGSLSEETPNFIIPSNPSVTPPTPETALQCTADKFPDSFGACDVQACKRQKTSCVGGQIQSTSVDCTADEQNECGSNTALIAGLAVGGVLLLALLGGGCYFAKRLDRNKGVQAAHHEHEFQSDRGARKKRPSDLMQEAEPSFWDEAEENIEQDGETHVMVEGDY

These are yes or no findings as the source states them, for the method shown. For some assays here: Binding seen in cells or lysates may run through a third protein. Some results given as binding are weak or reduced against the parent protein; the word gives no strength. For some assays here: Tags and fused reporters may be left off the sequences shown.

The target in assay [1] is native TgRON2 of T. gondii tachyzoites (T. gondii (endogenous in tachyzoites)) (UniProt B6KV60). As to the kind of experiment: co-IP; tachyzoite extract after 0.6% SDS lysis and Triton X100 renaturation; immunosorption with rabbit anti-RON2-1; AMA1 detected with MAb CL22.
The target of assay [2] is native TgAMA1 of T. gondii tachyzoites (T. gondii (endogenous in tachyzoites)) (UniProt B6KAM0). Nature of the assay: far-Western, overlay or dot blot; tachyzoite lysate in non-reducing SDS sample buffer separated on 10% gel and transferred to nitrocellulose; membrane incubated with GST or TgRON2-2 at 100 µg/ml in PBS for 2 h; revealed with rat anti-GST; only the binder purified.

For “native TgAMA1 of T. gondii tachyzoites (from UniProt B6KAM0 67-569)”, in assay [1], the binding entry is on record as “binds”.

B1: TgRON2-2 (GST-fused recombinant fragment of T. gondii RON2, V1295 to P1359) (domain or fragment, UniProt B6KV60 1295-1359)
chain: VADIVQHMEDIGGAPPVSCVTNEILGVTCAPQAIAKATTSAARVATQDFLKVGLFAGMAPYLMLP
Consider B1, for which the binding result in assay [2] is reported as “binds”.
